Values from PubChem BioAssay AID1159578 (Peter MacCallum Cancer Centre, 2015).

Screen: 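siRNA pools altering how lymphatic endothelial cells close a scratch wound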 (primary screen)
System: human lymphatic endothelial cells
Reagents: siRNA pool against human genes, 40 nM
Timing: 48 h after transfection
Read-out: 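High-content imaging of dye-stained cells in a scratch assay measures filled wound area and nuclei per well; duplicate means given as ratio to mock and robust z-score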
Scale: migration robust z-score: higher = faster migration into the scratch; nuclei per well: higher = more cells in the well
Call rule: 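Pools averaging fewer than 3300 nuclei are never called; remaining pools count as changed when migration robust z lies outside -2 to 2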
Calls: active = migration changed; inactive = no migration change, or too few cells
In all, the deposit lists about 18,000 reagents; below is a random part of them. About 1,030 of all reagents (5.7%) were called active. 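Inactive calls also include pools with fewer than 3300 nuclei, whose migration was not assessed.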 Raw values are not corrected between plates. The numbers tell different reagents against one gene apart. Not all columns of the deposit are shown. No sequences are given here.

no.	Gene	reagent	migration robust z-score	nuclei per well, duplicate mean	activity call
1	FOXD4L3 (forkhead box D4 like 3)	1	1.09	5162	inactive
2	FOXD4L3 (forkhead box D4 like 3)	2	1.37	5702	inactive
3	BTBD9 (BTB domain containing 9)	1	-0.01	6630	inactive
4	SMN2 (survival of motor neuron 2, centromeric)	1	-0.46	5849	inactive
5	RAX (retina and anterior neural fold homeobox)	1	-0.03	5690	inactive
6	PLA2G12B (phospholipase A2 group XIIB)	1	-2.15	5928	active
7	ASPHD2 (aspartate beta-hydroxylase domain containing 2)	1	0.29	5751	inactive
8	CACNA1E (calcium voltage-gated channel subunit alpha1 E)	1	-2.08	4969	active
9	SNAP91 (synaptosome associated protein 91)	1	1.07	6114	inactive
10	FCGRT (Fc gamma receptor and transporter)	1	1.04	7134	inactive
11	FXR1 (FMR1 autosomal homolog 1)	1	0.64	5508	inactive

Continued, starting with the last 3 of the part before.
no.	Gene	reagent	migration robust z-score	nuclei per well, duplicate mean	activity call
9	SNAP91 (synaptosome associated protein 91)	1	1.07	6114	inactive
10	FCGRT (Fc gamma receptor and transporter)	1	1.04	7134	inactive
11	FXR1 (FMR1 autosomal homolog 1)	1	0.64	5508	inactive
12	CIMIP7 (ciliary microtubule inner protein 7)	1	0.78	6556	inactive
13	HLX (H2.0 like homeobox)	1	-2.91	3481	active
14	HS3ST3B1 (heparan sulfate-glucosamine 3-sulfotransferase 3B1)	1	0.36	4890	inactive
15	H1-10 (H1.10 linker histone)	1	-0.58	5870	inactive
16	ASB14 (ankyrin repeat and SOCS box containing 14)	1	-3.73	5417	active
17	ABCF2 (ATP binding cassette subfamily F member 2)	1	1.77	6109	inactive
18	DTYMK (deoxythymidylate kinase)	1	-1.84	3409	inactive
19	TRPV4	1	-5.39	2984	inactive
20	RBM47 (RNA binding motif protein 47)	1	1.14	5895	inactive
21	TSG101 (tumor susceptibility 101)	1	0.31	5031	inactive
22	SMPD1 (sphingomyelin phosphodiesterase 1)	1	-1.14	6096	inactive
23	GIT1 (GIT ArfGAP 1)	1	-0.86	4832	inactive
